Library screen at single concentrations

By UniProt entry, the sequences of proteins in these tests, tags left out.
UniProt I6X8D2, whole entry: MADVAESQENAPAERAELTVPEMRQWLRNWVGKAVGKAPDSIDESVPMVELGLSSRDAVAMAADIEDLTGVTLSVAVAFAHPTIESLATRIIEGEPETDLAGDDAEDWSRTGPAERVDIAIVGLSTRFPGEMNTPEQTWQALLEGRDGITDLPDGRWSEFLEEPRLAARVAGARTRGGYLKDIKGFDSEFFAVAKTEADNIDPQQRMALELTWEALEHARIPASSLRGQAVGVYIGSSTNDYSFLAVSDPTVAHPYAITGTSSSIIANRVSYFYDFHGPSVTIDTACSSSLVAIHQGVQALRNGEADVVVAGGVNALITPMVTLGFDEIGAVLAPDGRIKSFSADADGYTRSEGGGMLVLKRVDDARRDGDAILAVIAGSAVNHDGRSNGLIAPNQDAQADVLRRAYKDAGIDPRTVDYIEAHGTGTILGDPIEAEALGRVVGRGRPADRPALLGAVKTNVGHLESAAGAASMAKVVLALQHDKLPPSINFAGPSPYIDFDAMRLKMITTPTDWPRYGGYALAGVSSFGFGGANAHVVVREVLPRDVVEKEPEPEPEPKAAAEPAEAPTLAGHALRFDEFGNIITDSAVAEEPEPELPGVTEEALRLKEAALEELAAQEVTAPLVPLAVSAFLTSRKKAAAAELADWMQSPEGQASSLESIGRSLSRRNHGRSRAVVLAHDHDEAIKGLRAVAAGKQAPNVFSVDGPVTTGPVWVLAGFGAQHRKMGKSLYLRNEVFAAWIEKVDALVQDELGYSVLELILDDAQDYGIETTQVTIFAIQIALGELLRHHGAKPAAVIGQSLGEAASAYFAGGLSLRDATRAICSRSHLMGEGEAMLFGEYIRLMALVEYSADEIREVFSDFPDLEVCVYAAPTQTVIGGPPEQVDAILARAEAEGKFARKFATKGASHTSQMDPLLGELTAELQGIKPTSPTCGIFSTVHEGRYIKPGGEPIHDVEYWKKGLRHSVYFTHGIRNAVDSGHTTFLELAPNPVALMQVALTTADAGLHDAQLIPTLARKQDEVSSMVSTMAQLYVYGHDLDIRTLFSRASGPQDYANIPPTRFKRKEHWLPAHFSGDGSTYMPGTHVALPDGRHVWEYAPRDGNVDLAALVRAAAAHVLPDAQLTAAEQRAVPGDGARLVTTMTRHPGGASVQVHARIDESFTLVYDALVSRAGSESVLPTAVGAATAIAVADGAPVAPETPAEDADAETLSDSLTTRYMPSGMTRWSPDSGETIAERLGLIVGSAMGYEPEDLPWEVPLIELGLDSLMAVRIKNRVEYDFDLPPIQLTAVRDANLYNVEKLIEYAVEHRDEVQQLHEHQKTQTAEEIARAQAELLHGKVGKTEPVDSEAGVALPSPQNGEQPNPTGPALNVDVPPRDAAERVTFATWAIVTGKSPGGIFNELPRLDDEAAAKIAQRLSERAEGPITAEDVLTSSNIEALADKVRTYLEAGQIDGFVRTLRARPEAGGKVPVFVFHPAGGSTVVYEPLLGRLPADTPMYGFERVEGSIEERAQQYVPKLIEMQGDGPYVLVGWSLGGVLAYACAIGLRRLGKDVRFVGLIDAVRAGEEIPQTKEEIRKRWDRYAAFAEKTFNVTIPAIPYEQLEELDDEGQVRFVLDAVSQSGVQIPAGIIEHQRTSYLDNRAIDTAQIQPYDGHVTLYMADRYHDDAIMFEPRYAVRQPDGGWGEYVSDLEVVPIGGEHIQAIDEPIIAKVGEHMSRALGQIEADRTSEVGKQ
UniProt P9WPC5, whole entry: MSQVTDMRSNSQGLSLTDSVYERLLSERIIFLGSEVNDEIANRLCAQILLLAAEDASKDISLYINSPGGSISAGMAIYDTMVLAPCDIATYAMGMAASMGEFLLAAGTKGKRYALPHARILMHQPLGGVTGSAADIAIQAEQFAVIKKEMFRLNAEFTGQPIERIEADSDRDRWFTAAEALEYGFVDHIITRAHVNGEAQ
UniProt P9WPC3, whole entry partner: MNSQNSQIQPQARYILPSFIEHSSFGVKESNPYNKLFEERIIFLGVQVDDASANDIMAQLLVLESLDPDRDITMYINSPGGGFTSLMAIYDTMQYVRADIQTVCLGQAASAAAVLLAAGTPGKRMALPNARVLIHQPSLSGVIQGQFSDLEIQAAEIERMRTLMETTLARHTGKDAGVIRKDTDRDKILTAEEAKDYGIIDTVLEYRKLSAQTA

From ChEMBL document CHEMBL3988442, “University of Dundee, Small-Polar-MMV Screening Library” (2021).

A: 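Cell assay of Leishmania donovani living inside macrophages; the read-out is not stated. Concentration: 30 µM. The record gives no direction; compounds that gave an IC50 in retests scored well above the rest, so higher reads as stronger inhibition. About 69,000 compounds were tested under these conditions; 1.5% (about 1,000) showed 50% or more at least once.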
B: 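Enzyme assay of the thioesterase domain of polyketide synthase 13; the read-out is not stated. Target: Polyketide synthase Pks13, Mycobacterium tuberculosis (UniProt I6X8D2). Tested at 30 µM. Higher reads as stronger inhibition (inferred from which compounds were picked for retests). About 67,000 compounds were tested under these conditions; 0.46% (about 300) showed 50% or more at least once.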
C: 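ClpP1P2, Mycobacterium tuberculosis (UniProt P9WPC5 and UniProt P9WPC3). Protease assay of ClpP1P2, read by the AMC dye that it sets free. Compounds at 50 µM. Direction is inferred from only a few compounds that gave an IC50; most scored high, so higher reads as stronger inhibition. Most other retested compounds had strongly negative values. About 69,000 compounds were tested under these conditions; 0.015% (about 10) showed 50% or more at least once.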
D: 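Whole-parasite assay of Trypanosoma brucei over 72 hours; the read-out is not stated. Concentration: 30 µM. Higher reads as stronger inhibition (inferred: compounds with an IC50 in retests scored well above the rest). Values scatter widely below zero; nearly all retest evidence comes from the higher of the two concentrations used. About 64,000 compounds were tested under these conditions; 1.5% (about 940) showed 50% or more at least once.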

The filed quantity is “Percent Effect” (%).
How 0% and 100% were set is not recorded. Most values in the screen are low, and negative values occur.
This is an unselected part of the compounds tested.
Two or more numbers in one place are separate tests of the same structure; such repeats can differ widely.
A dash means the value is not listed here; it may have been measured.

SMILES	A	B	C	D
COc1cccc2c1OCC(CNC(=O)CN(C)C1CCCC1)C2 (centres unmarked)	-18.43	-	-8.796	-199.8
CC(C)CNC(=O)c1nc2c(s1)CCN(C(=O)c1cccnc1)CC2	12.08	-24.11	0.7048	-11.06
O=C(CN1CCc2c(ncn2C2CC2)C1)NC1CC1	-6.017	-10.54	-6.74	-12.15
Cc1noc(C)c1CCC(=O)N1CCCC(n2ccnc2C)C1 (centres unmarked)	-12.33	-10.53	5.981	-20.85
Cc1nn(C)c(N2CCOCC2)c1CNCc1ccccc1CO	35.55	-11.46	-39.07	-
O=C(NS(=O)(=O)c1cnn(-c2ccccc2F)c1)c1ccoc1	5.887	-3.147	1.379	-87.05
CC(C(N)=O)N1CCc2onc(-c3cccc(F)c3)c2C1 (centres unmarked)	3.584	-12.56	-7.622	-23.62
CCc1n[nH]c(C2CN(C(=O)c3ccc4c(c3)CCC4)CCO2)n1 (centres unmarked)	-0.06563	-12.14	-31.54	-
NCCN1CCC(c2nnc(Cn3ccnc3)n2C2CC2)CC1	-15.23	3.257	15.5	-38.87
Cn1cc(NC(=O)c2ccccn2)cc(Cl)c1=O	26.38	-33.37	0.6509	-2.76
CN(Cc1cccs1)C(=O)CN1C(=O)c2cc(Cl)c(Cl)cc2C1=O	44.84	-0.6239	-2.431	-7.139
C=Cn1cc(CN2CCc3nc(-c4cccnc4)nc(O)c3C2)c(C)n1	8.034	8.803	-6.22	4.821
CCc1nc(CN2CCCN(C(=O)Cc3cccs3)CC2)cs1	1.027	-4.062	-17.73	-11.36
Cn1cnnc1S(=O)(=O)C1CCN(S(=O)(=O)C2CC2)CC1	-0.1432	-21.26	-6.81	5.415
Cc1nc(C)n(CC2CN(CC(=O)Nc3cccnc3)CCO2)n1 (centres unmarked)	31.54	-5.546	-7.319	7.273
CN(Cc1ccc(Br)o1)C(=O)Nc1cccnc1	-8.712	-48.34	6.018	-4.7
COc1nc(N2CCN(C(C)=O)CC2)ncc1Br	20.74	-28.48	-0.4918	-9.026
CNC(=O)Cn1c(CO)cnc1SCc1ccccc1Cl	28.82	-32.51	16.25	-18.05
O=C1N[C@@H]2CCN(C(=O)C3CC3)[C@@H]2C(=O)N1c1ccccc1	-	-20.75	4.67	-
Cc1cccc(NC(=O)CCC(=O)NCC(=O)c2ccccc2F)c1	-4.165	-27.82	4.39	-68.44
[H][C@@]12CCC(=O)N(Cc3cccc(C)n3)[C@]1([H])CCN2CC1CCOCC1	27	-	-	18.96
CN(C(=O)c1cccn1C)C1CCC(NC(=O)OC(C)(C)C)CC1 (centres unmarked)	15.66	-19.71	-23.83	35.8
CCN(C)c1ncnc2c1CCN(C(=O)c1ccoc1C)CC2.O=C(O)C(F)(F)F	-11.05	-	-	-39.88
CC(c1ccccc1F)N1CCN(C(=O)Cc2ccncc2)CC1 (centres unmarked)	6.332	-13.31	1.239	-1.899
Cn1ccc(C(=O)N2C[C@@H]3CN(CC4CC4)CCO[C@@H]3C2)n1	-	-15.92	14.34	-
Cc1cc(=O)[nH]c(=O)n1COCCOCc1ccccc1	-10.96	-9.752	-1.986	-21.13
CC1CN(C)CCN1C(=O)c1ccn(-c2ccccc2Cl)n1 (centres unmarked)	-20.36	-15.7	10.59	-16.64
Cc1nn(CCO)c(C)c1CN1CCN(C2CCCCC2)C(=O)C1	34.27	1.595	-6.753	-22.02
CC(C)(C)C(=O)N[C@H]1C[C@@H](Cc2cc(CN3CCOCC3)on2)C1(C)C	-0.4809	11.72	-24.86	2.278
Cn1cccc1CN1CCC2(CCCN(C(=O)c3cnccn3)C2)C1 (centres unmarked)	-	-6.186	7.5	-
Cn1cncc1CN1CC[C@](C)(O)[C@@H](Oc2cccc(F)c2)C1	6.733 and 0.6058	-38.27	-8.977	-52.17
CCC1CN(c2cnn(-c3ccccc3)c(=O)c2Cl)CCO1 (centres unmarked)	-14.12	2.173	13.63	-72
[H][C@@]12CCC(=O)N(CC(C)C)[C@]1([H])CCN(C(=O)c1ncc[nH]1)C2	22.04	-	-	-20.38
CN(C)C(=O)N[C@H]1CN(C2CCOCC2)[C@@H]2CCCO[C@H]12	-	3.96	6.52	-
O=C(COc1ccc(Cl)cc1Cl)N1CCCSCC1CN1CCOCC1 (centres unmarked)	16.08 and 19.75	-30.56	-5.428	36.06
CC(C)(CNC(=O)C(C)(C)Oc1ccc2c(c1)CCCC2=O)C(N)=O	27.42	-41.47	-0.1549	-47.6
CC(C)CN1C(=O)C2(CCN(Cc3ccsc3)C2)c2ccccc21 (centres unmarked)	-	-28.07	-25.35	-
CCNc1cc2c(nn1)CCN(C(=O)c1ccc3c(c1)OCO3)C2	32.27	2.626	-27.95	3.109
COCC(=O)N1CCC2(CC1)CC(COC)N(c1ncccn1)C2 (centres unmarked)	-	-30.77	-13.41	-
Cc1ccccc1-n1ccc2nc(N3CCCC3)ncc2c1=O	13.99	-16.22	7.962	-19.15
CN(C)c1ncc2c(c1C(=O)O)CCN(Cc1ccco1)C2.O=C(O)C(F)(F)F.O=C(O)C(F)(F)F	7.821	-	-	-49.89
COC(=O)c1ccc(Cn2cccc(C(F)(F)F)c2=O)c(OC)c1	-0.1317	-18.15	-5.172	-98.88
Cn1c(C(N)=O)cc2c1CN(C(=O)C1CCCN(C3CCCC3)C1)CC2 (centres unmarked)	15.75	-32.39	-2.914	-
C[C@H]1C[C@H]2CN(C(=O)CCc3ccccc3)CC[C@H]2O1	-	-7.383	-7.993	-
COC1CCN(S(=O)(=O)N2CC(c3ccccc3)C(C)(C)C2)CC1 (centres unmarked)	-32.47	16.41	-17.99	-
COCC(=O)N1CCN(c2cc(-n3cccc3)nc(C)n2)CC1	7.317	-29.42	-17.49	-10
CNC(=O)c1ccc(CN(C)C(=O)Nc2nnc(C(C)C)s2)cc1	14.43	-4.97	19.5	1.168
CN(C)C(=O)N1C[C@@H]2CC[C@H](C1)N(C(=O)CCCn1cncn1)C2	-	-5.925	-3.726	-
O=C(NCCCOc1cccnc1)c1cn(CCc2ccccc2)nn1	-3.384	20.81	-17.99	2.195
CCCN1C[C@H]2CC[C@@H]1CN(c1nnc(C(C)C)s1)C2	-	-2.411	23.99	-
O=C(O)Cc1nc2nccc(-c3ccc(F)cc3)n2n1	6.361	12.15	13.24	-13.81
CC(C)n1nc2c(cc1=O)CN(CC(=O)N(C)c1nccs1)CC2	9.87	-0.7616	-2.788	-64.35
Cn1cc(C(=O)N2CC[C@H](N3CCOCC3)[C@H](CCCO)C2)cn1	16.08	-38.25	-7.432	-105.4
CCCS(=O)(=O)N1Cc2nccn2CC(CN(C)C)C1.O=C(O)C(F)(F)F (centres unmarked)	25.09	-	-	-174.3
COc1ccccc1C(=O)NCCCN1CCCC1C(=O)N(C)C (centres unmarked)	-2.966	14.55	-3.215	-10.76
Cc1cc(NC(=O)C2CCN(c3nnc(C)c(C)c3C#N)CC2)no1	8.873	-7.065	8.042	-45.42
Cn1c(CN2CCOCC2)cc(=O)c(O)c1CN1CCCC1	-74.52	-13.8	-20.6	-4.659
CN(Cc1ccsc1)c1nc(-c2ccccn2)nc2c1CCNCC2	45.05	-82.52	-7.675	-25.17
N#Cc1ccc(NCc2cccnc2N2CCC(C(N)=O)CC2)cn1	24.43	-16.46	-7.056	-73.43
Cn1c(C(=O)N2CC[C@@]3(O)CCCC[C@H]3C2)cc2ccccc21	-	-2.797	-3.719	-
COc1ncccc1CNC(=O)c1cc(F)cc(Br)c1	17.98	-42.79	11.39	7.384
CC(C)c1noc(CCC(=O)NC2CCS(=O)(=O)C2)n1 (centres unmarked)	-5.541	-7.959	-26.09	-11.14
Cc1noc(C)c1-c1nc(C2CCCNC2)ccc1CO (centres unmarked)	-	10.12	-13.89	-
CNCc1cn(CC2CCN(CC(C)(C)CN3CCCC3)CC2)nn1	34.53	6.246	-34.93	-
Cc1nc(NC2(CN3CCCCC3)CCCCC2)c2cnn(C)c2n1	21.44	-5.619	-12.15	-66.6
[H][C@@]12CCCO[C@]1([H])[C@@H](OCC1CCOCC1)CN2C(=O)c1ccc(C)o1	20.52	-	-	-8.169

For reference, 8 entries once more:

| SMILES | A | B | C | D |
|---|---|---|---|---|
| `Cc1cccc(NC(=O)CCC(=O)NCC(=O)c2ccccc2F)c1` | -4.165 | -27.82 | 4.39 | -68.44 |
| `CN(Cc1ccsc1)c1nc(-c2ccccn2)nc2c1CCNCC2` | 45.05 | -82.52 | -7.675 | -25.17 |
| `Cn1cc(NC(=O)c2ccccn2)cc(Cl)c1=O` | 26.38 | -33.37 | 0.6509 | -2.76 |
| `CNC(=O)Cn1c(CO)cnc1SCc1ccccc1Cl` | 28.82 | -32.51 | 16.25 | -18.05 |
| `Cc1cc(=O)[nH]c(=O)n1COCCOCc1ccccc1` | -10.96 | -9.752 | -1.986 | -21.13 |
| `CC(C(N)=O)N1CCc2onc(-c3cccc(F)c3)c2C1` (centres unmarked) | 3.584 | -12.56 | -7.622 | -23.62 |
| `CN(C)c1ncc2c(c1C(=O)O)CCN(Cc1ccco1)C2.O=C(O)C(F)(F)F.O=C(O)C(F)(F)F` | 7.821 | - | - | -49.89 |
| `CCN(C)c1ncnc2c1CCN(C(=O)c1ccoc1C)CC2.O=C(O)C(F)(F)F` | -11.05 | - | - | -39.88 |